This is an account of results in publication PMC6110521.

The chains behind the UniProt entries cited, without tags or fusion partners.
UniProt O09106: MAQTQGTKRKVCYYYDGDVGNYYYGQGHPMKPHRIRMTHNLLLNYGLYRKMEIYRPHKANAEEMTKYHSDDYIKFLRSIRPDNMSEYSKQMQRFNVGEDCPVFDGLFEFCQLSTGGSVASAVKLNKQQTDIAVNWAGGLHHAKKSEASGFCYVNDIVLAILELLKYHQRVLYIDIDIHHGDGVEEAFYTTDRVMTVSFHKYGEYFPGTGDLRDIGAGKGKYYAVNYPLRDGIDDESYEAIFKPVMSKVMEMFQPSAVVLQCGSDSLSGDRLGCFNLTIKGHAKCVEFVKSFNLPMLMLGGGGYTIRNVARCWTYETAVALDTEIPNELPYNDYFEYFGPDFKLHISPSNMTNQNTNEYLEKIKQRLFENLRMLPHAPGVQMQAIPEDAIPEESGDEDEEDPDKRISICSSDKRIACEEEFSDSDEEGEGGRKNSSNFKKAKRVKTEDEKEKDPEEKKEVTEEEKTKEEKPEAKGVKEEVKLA

In this assay the target is T1, flag-tagged SMYD4 (SMYD4^flag), wild-type human, overexpressed in HL-1 cells (human) (UniProt Q8IYR2).
T1 sequence: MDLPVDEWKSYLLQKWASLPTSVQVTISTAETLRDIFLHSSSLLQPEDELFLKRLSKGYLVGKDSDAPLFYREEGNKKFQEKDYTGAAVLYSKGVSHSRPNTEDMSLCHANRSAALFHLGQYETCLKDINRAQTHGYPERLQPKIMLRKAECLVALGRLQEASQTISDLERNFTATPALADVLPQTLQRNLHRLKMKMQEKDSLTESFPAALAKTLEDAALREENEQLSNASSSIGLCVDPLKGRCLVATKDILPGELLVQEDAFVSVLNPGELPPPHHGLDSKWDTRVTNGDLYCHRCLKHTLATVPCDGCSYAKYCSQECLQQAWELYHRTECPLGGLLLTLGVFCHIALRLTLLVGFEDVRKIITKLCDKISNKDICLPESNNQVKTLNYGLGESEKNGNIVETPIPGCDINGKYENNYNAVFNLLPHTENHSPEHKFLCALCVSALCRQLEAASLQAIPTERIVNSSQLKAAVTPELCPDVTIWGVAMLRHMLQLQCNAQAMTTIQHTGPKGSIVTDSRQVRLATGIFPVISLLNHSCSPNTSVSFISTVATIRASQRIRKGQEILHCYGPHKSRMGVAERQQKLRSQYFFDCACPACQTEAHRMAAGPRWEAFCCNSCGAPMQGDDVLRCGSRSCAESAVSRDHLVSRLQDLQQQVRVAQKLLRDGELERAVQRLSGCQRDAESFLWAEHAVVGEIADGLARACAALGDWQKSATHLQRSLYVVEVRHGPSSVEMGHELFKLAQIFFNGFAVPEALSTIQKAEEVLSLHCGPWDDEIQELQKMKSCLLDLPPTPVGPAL
Kind of assay: affinity purification with mass spectrometry; SMYD4^flag overexpressed in HL-1 cells, 48 h after transfection; lysate in RIPA with 1 mM PMSF and protease inhibitors; immunoprecipitation with anti-Flag affinity gel, SDS-PAGE, silver staining, mass spectrometry.

Results are given in words; binding and its absence hold for the method and conditions named. Binding seen in cells or lysates may run through a third protein. Here binding means that the protein was enriched with, or labelled near, the bait; the list need not be complete. Tags and fused reporters may be left off the sequences shown.

For the substance “histone deacetylase 1 (HDAC1), in HL-1 cells (from UniProt O09106 1-482) (enzyme)”, the binding entry is given as “binds”.
